# According to the supplement of paper PMC10689618:
# Counter-ions that a name gives are not always drawn. The list shows a part of the results. Single values are uncertain, as repeats are few or missing.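 Labelled rat cortical synaptosomes were engulfed by primary human fetal astrocytes. Engulfment equaled a red/green ratio, corrected for calcein live-cell signal and normalized to the plate median. Compounds were toxic when calcein dropped over 30%, and reduced phagocytosis when below 70% of the median above 5 µM.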
# Key:
# Conditions in all cases: 24 h
# [1] = tested on: Human fetal astrocytes; experiment: loss of total cells relative to no-compound high-control median (toxicity); higher = more toxic (fewer cells)
# [2] = tested on: Human fetal astrocytes; experiment: as above; remark: listed apart in the source
# [3] = tested on: Human fetal astrocytes; experiment: synaptosome phagocytosis (pHrodo/calcein intensity ratio) relative to plate median of data wells; higher = more phagocytosis
# [4] = tested on: Human fetal astrocytes; experiment: as above; remark: listed apart in the source
Compound,loss of total cells ([1]; 1.39 µM),loss of total cells ([1]; 2.78 µM),loss of total cells ([1]; 5.56 µM),loss of total cells ([1]; 11.11 µM),loss of total cells ([1]; 22.22 µM),loss of total cells ([2]; 1.39 µM),loss of total cells ([2]; 2.78 µM),loss of total cells ([2]; 5.56 µM),loss of total cells ([2]; 11.11 µM),loss of total cells ([2]; 22.22 µM),synaptosome phagocytosis ([3]; 1.39 µM),synaptosome phagocytosis ([3]; 2.78 µM),synaptosome phagocytosis ([3]; 5.56 µM),synaptosome phagocytosis ([3]; 11.11 µM),synaptosome phagocytosis ([3]; 22.22 µM),synaptosome phagocytosis ([4]; 1.39 µM),synaptosome phagocytosis ([4]; 2.78 µM),synaptosome phagocytosis ([4]; 5.56 µM),synaptosome phagocytosis ([4]; 11.11 µM),synaptosome phagocytosis ([4]; 22.22 µM)
C=CCc1ccccc1OCC(O)CNC(C)C (stereo not given) [Alprenolol hydrochloride],8.1%,-15.3%,2.3%,-10.3%,5.6%,17.8%,-2.7%,1.5%,12.3%,6.3%,141%,104%,112%,58%,90.5%,96.2%,117%,102%,62.6%,97.4%
O=C(O)/C=C/c1ccc(O)c(O)c1 [Caffeic Acid],-28.3%,-19.5%,-18%,-14.8%,-1.1%,-27%,-7.6%,-3.7%,-3.4%,-17%,101%,100%,113%,104%,87.5%,116%,92.6%,104%,94.7%,110%
CN[C@H](CC(=O)O)C(=O)O [N-Methyl-D-aspartic acid],-10%,14.9%,9.9%,5.7%,12.1%,-14.8%,-9.7%,-0.7%,4.7%,-7.4%,123%,88.1%,118%,108%,144%,107%,93.5%,110%,80.8%,131%
CC(C)COCC(CN(Cc1ccccc1)c1ccccc1)N1CCCC1 (stereo not given) [Bepridil hydrochloride],-10.3%,-3.3%,5.1%,1.3%,-14.7%,-32.3%,-25.4%,-1.9%,47.5%,14%,99.3%,93.7%,97.6%,144%,55.5%,110%,90.9%,134%,98.9%,93.9%
CC(=O)Oc1cc(C(C)C)c(OCCN(C)C)cc1C [Moxisylyte hydrochloride],-24.2%,-5.9%,3.3%,7.6%,20.6%,-4.7%,-7.6%,10.9%,-8.8%,28.8%,73.8%,142%,112%,72.5%,144%,86.2%,115%,121%,117%,95.7%
COC(=O)C1=C(C)NC(C)=C(C(=O)OC)C1c1ccccc1[N+](=O)[O-] [Nifedipine],3.3%,3.2%,13.6%,19%,0.9%,30.7%,2.7%,11.7%,15.6%,29.5%,109%,113%,110%,88.4%,78.1%,100%,87.8%,73.3%,107%,87.3%
CCN(CC)C(=O)c1ccc(O)c(OC)c1 [Vanillic acid diethylamide],2.9%,-14.5%,0.8%,-19.3%,1.6%,-7.6%,6.6%,-6.1%,9.7%,-5.6%,128%,122%,122%,131%,90.4%,92.9%,103%,112%,92.3%,95.4%
CC(=O)OC(C)C[N+](C)(C)C (stereo not drawn) [Acetyl-beta-methylcholine chloride],-20.6%,-15.9%,-12.4%,9.4%,4.1%,-0.8%,-9.5%,11.7%,6.3%,-4%,78.9%,129%,108%,107%,118%,65.4%,104%,94.8%,125%,104%
CC(=O)O[C@H]1C(=O)[C@@]2(C)[C@H]([C@H](OC(=O)c3ccccc3)[C@]3(O)C[C@H](OC(=O)[C@H](O)[C@@H](NC(=O)c4ccccc4)c4ccccc4)C(C)=C1C3(C)C)[C@]1(OC(C)=O)CO[C@@H]1C[C@@H]2O [Taxol],3.4%,-12.3%,11.2%,-5.7%,-4.1%,-35.5%,23%,-3.1%,25.2%,16.5%,116%,136%,112%,132%,116%,143%,109%,124%,127%,134%
COc1ccc(CCN(C)CCCC(C#N)(c2ccc(OC)c(OC)c2)C(C)C)cc1OC (racemic) [(±)-Verapamil hydrochloride],,,,,,,,,,,76.6%,92.5%,104%,116%,78.1%,127%,76.3%,91.1%,130%,103%
NC(=O)N1c2ccccc2C=Cc2ccccc21 [Carbamazepine],-23.1%,-13.5%,-26.3%,4.9%,-4.1%,-16.6%,-4.6%,8.7%,-3.1%,-13%,90.3%,86.6%,87.4%,141%,111%,121%,108%,122%,126%,88%
O=c1c(O)c(-c2ccc(O)cc2O)oc2cc(O)cc(O)c12 [Morin],-10.9%,4.1%,15.5%,-3.8%,23.4%,-13.1%,-9%,3.7%,10.8%,-2.2%,135%,100%,84.6%,116%,82.2%,104%,119%,95.5%,100%,125%
CCN(CC)CCNC(=O)c1cc(S(C)(=O)=O)ccc1OC [Tiapride hydrochloride],-15.8%,-9.9%,-13.5%,-20.3%,15.6%,-21.8%,-27%,-9.3%,12.8%,-0.9%,102%,117%,121%,108%,130%,94.6%,88.8%,122%,122%,108%
O=NN(CCCl)C(=O)NCCCl [Carmustine],-12.8%,-9.6%,-6.9%,-17.5%,-4.1%,-33.1%,-15.1%,0%,11.5%,4%,90%,91.3%,99%,75.4%,93.7%,95.1%,111%,93.2%,134%,122%
CC(=O)Oc1ccccc1C(=O)O [Acetylsalicylic acid],-23.5%,-19.5%,-13.4%,-15.7%,-1.9%,-7.5%,17.4%,5.1%,-21.1%,0.6%,97.9%,96.2%,98.9%,124%,107%,106%,96.6%,96.4%,92.8%,107%
O=C(O)c1cc2cc(F)ccc2[nH]1 [5-Fluoroindole-2-carboxylic acid],-4.4%,18%,9.7%,13.9%,11.7%,5.4%,0.4%,-1.4%,16.3%,20.5%,112%,95.7%,117%,139%,137%,87.8%,128%,89.7%,92.4%,104%
CNCCCN1c2ccccc2CCc2ccccc21 [Desipramine hydrochloride],-7.9%,-12.8%,13.2%,19.3%,9.6%,-2.1%,-24.1%,-16.7%,8.4%,8.8%,89.6%,72.6%,63.7%,57.4%,34.8%,115%,98.3%,55.8%,81.1%,52.2%
O=C(O)CCCCCCCC(=O)O [Azelaic acid],-2.2%,-9.3%,-5.1%,4%,7.9%,-5.6%,-22%,-21.6%,-6.6%,33.1%,81.2%,127%,124%,120%,98.9%,71.9%,108%,108%,92.3%,96.7%
COc1ccc(CN(CCN(C)C)c2ccccn2)cc1 [Pyrilamine maleate],-8.1%,4.1%,-20.2%,-1%,-4.7%,4.5%,-24.1%,-9.1%,4.3%,-4%,105%,128%,101%,110%,140%,107%,115%,77.7%,131%,122%
CN(C)CCOC(c1ccccc1)c1ccccc1 [Diphenhydramine hydrochloride],7.9%,-22.2%,-16.5%,-2.2%,12%,-6.2%,-42.4%,-25.1%,-6.6%,-13.7%,122%,105%,134%,58.4%,71.1%,115%,87.8%,128%,90.9%,110%
COC(=O)[C@H]1[C@H]2C[C@@H]3c4[nH]c5cc(OC)ccc5c4CCN3C[C@H]2C[C@@H](OC(=O)c2cc(OC)c(OC)c(OC)c2)[C@@H]1OC [Reserpine],-18.3%,-2.1%,7.8%,-9.4%,4.1%,-5%,0.3%,-10.5%,0.3%,-8.8%,89%,79.9%,113%,65.4%,59.4%,74%,85.5%,105%,85.8%,69.2%
COc1ccccc1OCC(O)CN1CCN(CC(=O)Nc2c(C)cccc2C)CC1 (stereo not given) [Ranolazine dihydrochloride],-7.8%,-26.6%,-9%,3.4%,11.5%,-11.6%,-0.9%,7.5%,-14.1%,-22.1%,81.4%,102%,109%,62.4%,71.7%,94.9%,118%,98.1%,96%,62.5%
Cc1cnc(NC(=O)C2=C(O)c3ccccc3S(=O)(=O)N2C)s1 [Meloxicam sodium],-5.2%,10.4%,15.5%,1%,22.4%,20.2%,-23.8%,-6.2%,47.5%,2.8%,126%,81.6%,117%,110%,99.6%,73.1%,107%,78.7%,114%,93.8%
NCCS [Cysteamine hydrochloride],-9%,5.9%,12.7%,-21%,-2.8%,24.2%,-48.4%,31.7%,-12.1%,18.4%,124%,86.8%,130%,61.6%,104%,112%,84.8%,116%,124%,116%
CN(C)[C@@H]1C(=O)C(C(N)=O)=C(O)[C@@]2(O)C(=O)C3=C(O)c4c(O)ccc(Cl)c4[C@@H](O)[C@H]3C[C@@H]12 [Demeclocycline hydrochloride],1.3%,-7.7%,-0.8%,-0.4%,-1.6%,5.6%,-30.2%,-29.3%,2.6%,22.2%,105%,99.3%,103%,119%,118%,91.9%,122%,99.5%,118%,129%

# Fetched by compound from above, 2 records:
Compound,loss of total cells ([1]; 1.39 µM),loss of total cells ([1]; 2.78 µM),loss of total cells ([1]; 5.56 µM),loss of total cells ([1]; 11.11 µM),loss of total cells ([1]; 22.22 µM),loss of total cells ([2]; 1.39 µM),loss of total cells ([2]; 2.78 µM),loss of total cells ([2]; 5.56 µM),loss of total cells ([2]; 11.11 µM),loss of total cells ([2]; 22.22 µM),synaptosome phagocytosis ([3]; 1.39 µM),synaptosome phagocytosis ([3]; 2.78 µM),synaptosome phagocytosis ([3]; 5.56 µM),synaptosome phagocytosis ([3]; 11.11 µM),synaptosome phagocytosis ([3]; 22.22 µM),synaptosome phagocytosis ([4]; 1.39 µM),synaptosome phagocytosis ([4]; 2.78 µM),synaptosome phagocytosis ([4]; 5.56 µM),synaptosome phagocytosis ([4]; 11.11 µM),synaptosome phagocytosis ([4]; 22.22 µM)
COC(=O)[C@H]1[C@H]2C[C@@H]3c4[nH]c5cc(OC)ccc5c4CCN3C[C@H]2C[C@@H](OC(=O)c2cc(OC)c(OC)c(OC)c2)[C@@H]1OC [Reserpine],-18.3%,-2.1%,7.8%,-9.4%,4.1%,-5%,0.3%,-10.5%,0.3%,-8.8%,89%,79.9%,113%,65.4%,59.4%,74%,85.5%,105%,85.8%,69.2%
CC(=O)OC(C)C[N+](C)(C)C (stereo not drawn) [Acetyl-beta-methylcholine chloride],-20.6%,-15.9%,-12.4%,9.4%,4.1%,-0.8%,-9.5%,11.7%,6.3%,-4%,78.9%,129%,108%,107%,118%,65.4%,104%,94.8%,125%,104%
